# Experimental data published in the supplement of paper PMC8728848.
# The other results are listed elsewhere or left out.
# Experiments:
# Assay in all cases: glycan array binding signal (z-score within array); higher = stronger binding
# Settings in all cases: glycan notation: IUPAC condensed, linker removed
# [1] = biological target: Gal(b1-3)GlcNAc(b1-2)Man(a1-3)[Gal(b1-3)GlcNAc(b1-2)Man(a1-6)]Man(b1-4)GlcNAc(b1-4)[Fuc(a1-6)]GlcNAc
# In short: (§1)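 Glycan array data were curated from 3228 arrays in the Consortium for Functional Glycomics database and kept only where the protein sequence was available. Glycan names were converted to IUPAC-condensed notation, and columns mapping to the same glycan were averaged. The binding signal is a within-array Z-score, averaged across arrays of the same protein sequence at different concentrations or buffers and across linkers. Negative Z-scores can be read as non-binding.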
# [2] = biological target: Gal(b1-3)GlcNAc(b1-2)Man(a1-3)[GlcNAc(b1-4)][Gal(b1-3)GlcNAc(b1-2)Man(a1-6)]Man(b1-4)GlcNAc(b1-4)GlcNAc
# In short: as §1
# [3] = biological target: Gal(b1-3)GlcNAc(b1-2)[Gal(b1-3)GlcNAc(b1-6)]Man(a1-6)[Gal(b1-3)GlcNAc(b1-2)Man(a1-3)]Man(b1-4)GlcNAc(b1-4)GlcNAc
# In short: as §1
# [4] = biological target: Gal(b1-3)GlcNAc(b1-3)Gal(b1-3)GlcNAc
# In short: as §1
# [5] = biological target: Gal(b1-3)GlcNAc(b1-3)Gal(b1-4)Glc
# In short: as §1
# [6] = biological target: Gal(b1-3)GlcNAc(b1-3)Gal(b1-4)GlcNAc
# In short: as §1
# [7] = biological target: Gal(b1-3)GlcNAc(b1-3)Gal(b1-4)GlcNAc(b1-2)Man(a1-3)[Gal(b1-3)GlcNAc(b1-3)Gal(b1-4)GlcNAc(b1-2)Man(a1-6)]Man(b1-4)GlcNAc(b1-4)GlcNAc
# In short: as §1
# [8] = biological target: Gal(b1-3)GlcNAc(b1-3)Gal(b1-4)GlcNAc(b1-2)[Gal(b1-3)GlcNAc(b1-3)Gal(b1-4)GlcNAc(b1-6)]Man(a1-6)[Gal(b1-3)GlcNAc(b1-3)Gal(b1-4)GlcNAc(b1-2)Man(a1-3)]Man(b1-4)GlcNAc(b1-4)[Fuc(a1-6)]GlcNAc
# In short: as §1
# [9] = biological target: Gal(b1-3)GlcNAc(b1-3)Gal(b1-4)GlcNAc(b1-3)Gal(b1-4)GlcNAc(b1-2)[Gal(b1-3)GlcNAc(b1-3)Gal(b1-4)GlcNAc(b1-3)Gal(b1-4)GlcNAc(b1-6)]Man(a1-6)[Gal(b1-3)GlcNAc(b1-3)Gal(b1-4)GlcNAc(b1-3)Gal(b1-4)GlcNAc(b1-2)Man(a1-3)]Man(b1-4)GlcNAc(b1-4)[Fuc(a1-6)]GlcNAc
# In short: as §1
# [10] = biological target: Gal(b1-3)GlcNAc(b1-3)Gal(b1-4)GlcNAc(b1-6)[Gal(b1-3)GlcNAc(b1-3)]Gal(b1-4)Glc
# In short: as §1
# [11] = biological target: Gal(b1-3)GlcNAc(b1-3)Gal(b1-4)[Fuc(a1-3)]GlcNAc
# In short: as §1
# [12] = biological target: Gal(b1-3)GlcNAc(b1-3)Gal(b1-4)[Fuc(a1-3)]GlcNAc(b1-6)[Gal(b1-3)GlcNAc(b1-3)]Gal(b1-4)Glc
# In short: as §1
# [13] = biological target: Gal(b1-3)GlcNAc(b1-3)GalNAc
# In short: as §1
# [14] = biological target: Gal(b1-3)GlcNAc(b1-6)Gal(b1-4)GlcNAc
# In short: as §1
# [15] = biological target: Gal(b1-3)GlcNAc(b1-6)GalNAc
# In short: as §1
# [16] = biological target: Gal(b1-3)GlcNAc(b1-6)[Gal(b1-3)]GalNAc
# In short: as §1
# [17] = biological target: Gal(b1-3)GlcNAc6S
# In short: as §1
# [18] = biological target: Gal(b1-3)[Fuc(a1-4)]GlcNAc
# In short: as §1
# [19] = biological target: Gal(b1-3)[Fuc(a1-4)]GlcNAc(b1-2)Man
# In short: as §1
# [20] = biological target: Gal(b1-3)[Fuc(a1-4)]GlcNAc(b1-2)Man(a1-3)[Gal(b1-3)[Fuc(a1-4)]GlcNAc(b1-2)Man(a1-6)]Man(b1-4)GlcNAc(b1-4)[Fuc(a1-6)]GlcNAc
# In short: as §1
# [21] = biological target: Gal(b1-3)[Fuc(a1-4)]GlcNAc(b1-3)Gal(b1-3)[Fuc(a1-4)]GlcNAc
# In short: as §1
# [22] = biological target: Gal(b1-3)[Fuc(a1-4)]GlcNAc(b1-3)Gal(b1-4)[Fuc(a1-3)]GlcNAc
# In short: as §1
# [23] = biological target: Gal(b1-3)[Fuc(a1-4)]GlcNAc(b1-6)GalNAc
# In short: as §1
# [24] = biological target: Gal(b1-3)[GlcNAc(b1-6)]GalNAc
# In short: as §1
# [25] = biological target: Gal(b1-3)[Neu5Ac(a2-6)]GalNAc
# In short: as §1
# [26] = biological target: Gal(b1-3)[Neu5Ac(a2-6)]GlcNAc(b1-4)Gal(b1-4)Glc
# In short: as §1
# [27] = biological target: Gal(b1-3)[Neu5Ac(b2-6)]GalNAc
# In short: as §1
# [28] = biological target: Gal(b1-4)Gal
# In short: as §1
# [29] = biological target: Gal(b1-4)GalNAc(a1-3)[Fuc(a1-2)]Gal(b1-4)GlcNAc
# In short: as §1
# [30] = biological target: Gal(b1-4)GalNAc(b1-3)[Fuc(a1-2)]Gal(b1-4)GlcNAc
# In short: as §1
# [31] = biological target: Gal(b1-4)Glc
# In short: as §1
# [32] = biological target: Gal(b1-4)Glc6S
# In short: as §1
# [33] = biological target: Gal(b1-4)GlcNAc
# In short: as §1
# [34] = biological target: Gal(b1-4)GlcNAc(a1-6)Gal(b1-4)GlcNAc
# In short: as §1
# [35] = biological target: Gal(b1-4)GlcNAc(b1-2)Man
# In short: as §1
# [36] = biological target: Gal(b1-4)GlcNAc(b1-2)Man(a1-3)Man(b1-4)GlcNAc(b1-4)GlcNAc
# In short: as §1
# [37] = biological target: Gal(b1-4)GlcNAc(b1-2)Man(a1-3)[Gal(b1-4)GlcNAc(b1-2)Man(a1-6)]Man(b1-4)GlcNAc(b1-4)GlcNAc
# In short: as §1
# [38] = biological target: Gal(b1-4)GlcNAc(b1-2)Man(a1-3)[Gal(b1-4)GlcNAc(b1-2)Man(a1-6)]Man(b1-4)GlcNAc(b1-4)[Fuc(a1-6)]GlcNAc
# In short: as §1
# [39] = biological target: Gal(b1-4)GlcNAc(b1-2)Man(a1-3)[Gal(b1-4)GlcNAc(b1-2)Man(a1-6)][Gal(b1-4)GlcNAc(b1-4)]Man(b1-4)GlcNAc(b1-4)[Fuc(a1-6)]GlcNAc
# In short: as §1
# [40] = biological target: Gal(b1-4)GlcNAc(b1-2)Man(a1-3)[Gal(b1-4)GlcNAc(b1-2)Man(a1-6)][GlcNAc(b1-4)]Man(b1-4)GlcNAc(b1-4)[Fuc(a1-6)]GlcNAc
# In short: as §1
# [41] = biological target: Gal(b1-4)GlcNAc(b1-2)Man(a1-3)[GlcNAc(b1-2)Man(a1-6)]Man(b1-4)GlcNAc(b1-4)GlcNAc
# In short: as §1
# [42] = biological target: Gal(b1-4)GlcNAc(b1-2)Man(a1-3)[GlcNAc(b1-4)][Gal(b1-4)GlcNAc(b1-2)Man(a1-6)]Man(b1-4)GlcNAc(b1-4)GlcNAc
# In short: as §1
# [43] = biological target: Gal(b1-4)GlcNAc(b1-2)Man(a1-3)[Man(a1-6)]Man(b1-4)GlcNAc(b1-4)GlcNAc
# In short: as §1
# [44] = biological target: Gal(b1-4)GlcNAc(b1-2)Man(a1-6)Man(b1-4)GlcNAc(b1-4)GlcNAc
# In short: as §1
# [45] = biological target: Gal(b1-4)GlcNAc(b1-2)Man(a1-6)[GlcNAc(b1-2)Man(a1-3)]Man(b1-4)GlcNAc(b1-4)GlcNAc
# In short: as §1
binder,measurement,setting,value
SJCP3842 (Schistosoma japonicum) (protein) MFKMRIINLVNISTVLLLINLLQTKSRLVGKENGFMLTVSIYGAQLSDKMTSVPVSWTIDYEDPEKSAFKKLVTDSCDTFSEYVKSQIPKGSVDGQCTSHIFQRPGSGSGVSISLTLSFIYVDVTQPDTVALKTELEKHFANFVTIHSHKITQAQFRINQKAIVIPTGDKDAIDGSKWKIIAIIALVALAIVVIGGFIYICVK,glycan array binding signal (z-score),[1],-0.374
same,glycan array binding signal (z-score),[2],0.579
same,glycan array binding signal (z-score),[3],0.665
same,glycan array binding signal (z-score),[4],0.316
same,glycan array binding signal (z-score),[5],-0.764
same,glycan array binding signal (z-score),[6],-0.745
same,glycan array binding signal (z-score),[7],-0.467
same,glycan array binding signal (z-score),[8],1.25
same,glycan array binding signal (z-score),[9],1.37
same,glycan array binding signal (z-score),[10],0.751
same,glycan array binding signal (z-score),[11],-0.783
same,glycan array binding signal (z-score),[12],-1.27
same,glycan array binding signal (z-score),[13],-1.44
same,glycan array binding signal (z-score),[14],0.33
same,glycan array binding signal (z-score),[15],-0.46
same,glycan array binding signal (z-score),[16],-0.345
same,glycan array binding signal (z-score),[17],-0.283
same,glycan array binding signal (z-score),[18],-0.703
same,glycan array binding signal (z-score),[19],1.21
same,glycan array binding signal (z-score),[20],1.5
same,glycan array binding signal (z-score),[21],-1.29
same,glycan array binding signal (z-score),[22],-0.203
same,glycan array binding signal (z-score),[23],2.24
same,glycan array binding signal (z-score),[24],0.129
same,glycan array binding signal (z-score),[25],-1
same,glycan array binding signal (z-score),[26],-1.36
same,glycan array binding signal (z-score),[27],-1.08
same,glycan array binding signal (z-score),[28],-0.475
same,glycan array binding signal (z-score),[29],-0.717
same,glycan array binding signal (z-score),[30],-0.171
same,glycan array binding signal (z-score),[31],-1.59
same,glycan array binding signal (z-score),[32],0.436
same,glycan array binding signal (z-score),[33],0.516
same,glycan array binding signal (z-score),[34],-0.812
same,glycan array binding signal (z-score),[35],-0.281
same,glycan array binding signal (z-score),[36],-0.919
same,glycan array binding signal (z-score),[37],0.013
same,glycan array binding signal (z-score),[38],0.665
same,glycan array binding signal (z-score),[39],-0.855
same,glycan array binding signal (z-score),[40],0.433
same,glycan array binding signal (z-score),[41],-0.747
same,glycan array binding signal (z-score),[42],0.997
same,glycan array binding signal (z-score),[43],-0.204
same,glycan array binding signal (z-score),[44],1.27
same,glycan array binding signal (z-score),[45],-0.921

# Some of the entries above, reformatted:
binder	measurement	setting	value
SJCP3842 (Schistosoma japonicum) (protein) MFKMRIINLVNISTVLLLINLLQTKSRLVGKENGFMLTVSIYGAQLSDKMTSVPVSWTIDYEDPEKSAFKKLVTDSCDTFSEYVKSQIPKGSVDGQCTSHIFQRPGSGSGVSISLTLSFIYVDVTQPDTVALKTELEKHFANFVTIHSHKITQAQFRINQKAIVIPTGDKDAIDGSKWKIIAIIALVALAIVVIGGFIYICVK	glycan array binding signal (z-score)	[28]	-0.475
same	glycan array binding signal (z-score)	[29]	-0.717
